The text below walks through data of the supplement of paper PMC3682954.

This assay concerns RAW 264.7. The experiment in a line: cell viability (MTT) relative to vehicle control; higher = more viable cells. As to conditions: stimulus: HMGB1 5 ug/ml, 18 h.
[1] abbreviates: compound concentration: 1 ug/ml.

Several values for one entry are separate records, joined by “and”; a condition that tells them apart may be missing. Identical values can stand only once. Counter-ions that a name gives are not always drawn. ± gives the standard deviation of the averaged measurements. This is one part of the list. Most values come without repeats; read them as rough.

Usually cell viability stands for a read-out of living cells in per cent, often relative to untreated cells. As to `NCC(CP(=O)(O)O)c1ccc(Cl)cc1` (stereo unspecified) [Phaclofen], where the note is “compound concentration: 3 uM”, the cell viability amounted to 108%.

On to `c1ccc(C2CC2)c(OCC2=NCCN2)c1` [Cirazoline hydrochloride], for which the cell viability (compound concentration: 3 uM) was found to be 109%.

On to `c1ccc(C2CC2)c(OCC2=NCCN2)c1` [Cirazoline], for which the cell viability (compound concentration: 3 uM) turned out to be 107%.

With `CCCC(=O)OCC[N+](C)(C)C` [Butyrylcholine], the cell viability (compound concentration: 3 uM) turned out to be 105%.

On to `CN1[C@@H]2CC[C@H]1C[C@@H](OC(c1ccccc1)c1ccccc1N)C2` (stereo partly specified) [Aminobenztropine], for which the cell viability (compound concentration: 3 uM) came to 97.5%.

Take `CCOP(=S)(OCC)Oc1cc(C)nc(C(C)C)n1`: where the note is “compound concentration: 3 uM”, the cell viability turned out to be 109%.

For the molecule `CNC(C)(C)Cc1ccccc1` [Mephentermine hemisulfate], the cell viability (compound concentration: 3 uM) came to 118%.

`CNC(C)(C)Cc1ccccc1`: under “compound concentration: 3 uM”, the cell viability came out at 109%.

In the case of `C[C@]12CCC(=O)C(O)=C1CC[C@@H]1[C@@H]2CC[C@]2(C)C(=O)CC[C@@H]12` [Formestane], under “compound concentration: 3 uM”, the cell viability amounted to 102 ± 13%.

Consider `C[C@]12CCC(=O)C(O)=C1CC[C@@H]1[C@@H]2CC[C@]2(C)C(=O)CC[C@@H]12`, for which the cell viability (compound concentration: 3 uM) was 120 ± 16%.

For `CCN(CC)CCOC(=O)C(O)(c1ccccc1)c1ccccc1`, the cell viability (compound concentration: 3 uM) amounted to 97.1%.

As to `CNC(=O)Oc1ccc2c(c1)[C@]1(C)CCN(C)[C@@H]1N2C`, the cell viability (compound concentration: 3 uM) was found to be 110%.

Consider `CNC(=O)Oc1ccc2c(c1)[C@]1(C)CCN(C)[C@@H]1N2C` [(-)-Physostigmine], for which the cell viability (compound concentration: 3 uM) is 109%.

For the molecule `CNC(=O)Oc1ccc2c(c1)[C@]1(C)CCN(C)[C@@H]1N2C` [Physostigmine], the cell viability (compound concentration: 3 uM) worked out at 98.68 ± 0.71%.

Take `CNC(=O)Oc1ccc2c(c1)[C@]1(C)CCN(C)[C@@H]1N2C` [Eserine sulfate, physostigmine sulfate]: the cell viability (compound concentration: 3 uM) is 109%.

In the case of `CNC(=O)Oc1ccc2c(c1)[C@]1(C)CCN(C)[C@@H]1N2C` [Eserine], the cell viability under setting [1] was found to be 88.2%.

With `CN(C)C(=O)Oc1cccc([N+](C)(C)C)c1`, the cell viability (compound concentration: 3 uM) was found to be 110%.

Consider `CN(C)C(=O)Oc1cccc([N+](C)(C)C)c1` [Neostigmine bromide], for which the cell viability (compound concentration: 3 uM) worked out at 117 ± 5.3%.

`CN(C)C(=O)Oc1cccc([N+](C)(C)C)c1` [Neostigmine]: the cell viability (compound concentration: 3 uM) stood at 102%.

As for `CN1[C@H]2C[C@H](OC(=O)[C@H](CO)c3ccccc3)C[C@@H]1[C@@H](O)C2`, where the note is “compound concentration: 3 uM”, the cell viability turned out to be 110%.

`COc1ccc(C(CN(C)C)C2(O)CCCCC2)cc1` (stereo unspecified) [Venlafaxine hydrochloride]: the cell viability (compound concentration: 3 uM) came to 95.5%.

For the molecule `COc1ccc(C(CN(C)C)C2(O)CCCCC2)cc1` (stereo unspecified), the cell viability (compound concentration: 3 uM) was 94.4% and 111%.

Take `COc1ccc(C(CN(C)C)C2(O)CCCCC2)cc1` (stereo unspecified) [Venlafaxine]: the cell viability (compound concentration: 3 uM) came to 107 ± 1.1%.

Turning to `CCN(CCCl)Cc1ccccc1Br` [DSP-4 hydrochloride], the cell viability (compound concentration: 3 uM) was 102%.

Take `CCNCC(O)c1cccc(O)c1` (stereo unspecified) [Etilefrine hydrochloride]: under “compound concentration: 3 uM”, the cell viability was found to be 94.3%.

Consider `O=c1c(O)c(-c2ccc(O)c(O)c2)oc2c(O)c(O)cc(O)c12` [Gossypetin], for which, under setting [1], the cell viability amounted to 90.7%.

As to `CN1CCc2cc3c(cc2C1O)OCO3` (stereo unspecified) [Hydrastinine hydrochloride], the cell viability reads like this: under setting [1], 107%; (compound concentration: 3 uM) 102%.

With `CN1CCc2cc3c(cc2C1O)OCO3` (stereo unspecified), the cell viability (compound concentration: 3 uM) came to 114%.

With `COc1ccc2[nH]cc(C3=CCNCC3)c2c1`, the cell viability (compound concentration: 3 uM) amounted to 99.5%.

Take `CC(C)(N)Cc1ccccc1`: where the note is “compound concentration: 3 uM”, the cell viability came out at 104%.

Regarding `CC(C)(N)Cc1ccccc1` [Phentermine hydrochloride], the cell viability (compound concentration: 3 uM) came out at 102%.

Turning to `CN(CC[C@H](N)CC(=O)N[C@H]1C=C[C@H](n2ccc(N)nc2=O)O[C@@H]1C(=O)O)C(=N)N`, where the note is “compound concentration: 3 uM”, the cell viability was 129%.

`CC(N)c1cccc(Cl)c1Cl` (racemic) [(±)-2,3-Dichloro-alpha-methylbenzylamine hydrochloride]: where the note is “compound concentration: 3 uM”, the cell viability turned out to be 91.3%.

For `CCCCC(C#N)(Cn1cncn1)c1ccc(Cl)cc1` (stereo unspecified) [Myclobutanil], the cell viability (compound concentration: 3 uM) stood at 84.3%.

As for `COc1ccc(C(=O)c2c(C)n(CCN3CCOCC3)c3ccccc23)cc1` [Pravadoline], for the setting “compound concentration: 3 uM”, the cell viability came out at 99.2%.

For the molecule `C=CCN1CC[C@]23CCCC[C@H]2[C@H]1Cc1ccc(O)cc13` [Levallorphan], the cell viability (compound concentration: 3 uM) worked out at 104%.

For `C=CCN1CC[C@]23CCCC[C@H]2[C@H]1Cc1ccc(O)cc13` [Levallorphan tartrate], the cell viability (compound concentration: 3 uM) was 101%.

Regarding `CC(=O)Nc1cc([As](=O)(O)O)ccc1O`, the cell viability (compound concentration: 3 uM) was 98.4 ± 4.8%.

Regarding `Cc1cc2c(C(C)C)c(O)c(O)c(C=O)c2c(O)c1-c1c(C)cc2c(C(C)C)c(O)c(O)c(C=O)c2c1O`, the cell viability under setting [1] is 111% and the cell viability (compound concentration: 3 uM) was 112%.
